Data as given in PubChem BioAssay AID504764 (Drosophila RNAi Screening Center, 2011)

Aim: 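Genes whose knock-down alters Notch-dependent transcription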 (primary screen)
System: Drosophila Kc167 cells
Knock-down reagent: long dsRNA against Drosophila genes
Duration: about 5 days (4 days dsRNA, then 24 h after transfection)
Challenge: transfection of constitutively active membrane-tethered Notch lacking the extracellular domain, read 24 h later
Read-out: 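Firefly luciferase from an E(spl)m3 reporter with active Notch, plus control-promoter and uninduced reporter wells for normalisation; unnormalised counts, duplicate wells a and b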
Reading the numbers: induced reporter light, run 1, well a and induced reporter light, run 1, well b: higher = more light from the Notch target reporter with active Notch; control promoter light, run 1, well a and control promoter light, run 1, well b: higher = more light from the viral control promoter (cell number, transfection, viability); uninduced reporter light, run 1, well a: higher = more light from the Notch target reporter without active Notch
Call rule: 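Hit if the duplicate-averaged log2 ratio of induced to control-promoter light gives a plate-wise z beyond ±2, or induced to uninduced beyond ±1.8; weak-control or discordant-duplicate wells dropped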
Meaning of the calls: active = modifier hit (raised or lowered Notch signal); inactive = not a hit
In all, the deposit lists about 22,000 reagents; shown is an unselected part of those that have a named target and a result. Of all reagents, 403 (1.9%) were called active. 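Unnormalised raw counts per well; ratio z-scores behind the hit calls and whether each hit raises or lowers signal are not deposited.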 Entries without a mark were called inactive. A plus sign joins genes that one reagent is predicted to hit. Not stated in the record: the amount of reagent.

Target gene,dsRNA,"induced reporter light, run 1, well a","induced reporter light, run 1, well b","control promoter light, run 1, well a","control promoter light, run 1, well b","uninduced reporter light, run 1, well a"
Gapdh2,DRSC20246,59140,46745,65370,47275,9220
Dhpr,DRSC11135,2.50e5,1.61e5,2.49e5,2.17e5,10765
PH4alphaMP,DRSC17031,1.41e5,1.38e5,1.96e5,1.64e5,10940
CG10862,DRSC08170,1.15e5,1.11e5,1.88e5,1.36e5,6990
Acbp2,DRSC11141,2.01e5,2.01e5,1.79e5,1.50e5,7440
Tcs4,DRSC19587,1.18e5,1.07e5,80520,56830,8795
dlg1,DRSC18895,62890,62295,37160,28950,4695
dlg1,DRSC18896,92905,81240,83285,69895,7070
dlg1,DRSC19767,69035,55890,83760,93505,6125
dlg1,DRSC20324,1.93e5,1.84e5,1.90e5,2.28e5,12070
CG14892,DRSC15014,2.51e5,2.74e5,2.32e5,2.82e5,18140
CG12391,DRSC06147,1.80e5,1.97e5,1.60e5,1.55e5,13415
CG12929,DRSC06242,1.58e5,2.11e5,2.19e5,1.86e5,16135
Prx6c + CG12896 + Prx6b,DRSC06148,1.59e5,1.81e5,2.28e5,2.29e5,14235
CG40486,DRSC20619,1.74e5,1.41e5,1.12e5,85370,9395
CG4712,DRSC06882,1.18e5,1.04e5,1.42e5,1.13e5,9055
mRpL50,DRSC11015,1.67e5,1.15e5,88935,47585,10500
MCPH1,DRSC06309,90880,78625,80250,70025,7205
MCPH1,DRSC07308,92005,95355,1.13e5,1.24e5,8995
CG11398,DRSC18625,93345,93135,1.55e5,1.65e5,7442
CG32236,DRSC08117,1.89e5,1.48e5,1.76e5,1.73e5,13080
Acadvl,DRSC07022,1.12e5,1.31e5,1.95e5,1.96e5,8565
Wdr92,DRSC10187,1.30e5,1.48e5,1.80e5,1.62e5,7925
mlt,DRSC06120,1.99e5,1.54e5,1.64e5,1.49e5,13455
Ent3,DRSC09822,1.31e5 (active),1.27e5,1.17e5,88225,10755
CG32767,DRSC18386,1.58e5,1.39e5,2.75e5,3.50e5,11450
CG34133,DRSC16319,90990,1.00e5,1.05e5,88485,6675
CG15471,DRSC18054,59660 (active),67370,79565,72155,5610
cal1,DRSC15725,2.12e5,2.21e5,3.20e5,3.49e5,22060
CG13332,DRSC06367,1.01e5,1.15e5,1.76e5,1.72e5,11165
CG1441,DRSC06448,1.53e5,1.61e5,1.63e5,1.44e5,12905

Reagents listed above marked active (2):
Target gene,dsRNA,"induced reporter light, run 1, well a","induced reporter light, run 1, well b","control promoter light, run 1, well a","control promoter light, run 1, well b","uninduced reporter light, run 1, well a"
Ent3,DRSC09822,1.31e5 (active),1.27e5,1.17e5,88225,10755
CG15471,DRSC18054,59660 (active),67370,79565,72155,5610

Next results follow:
Target gene,dsRNA,"induced reporter light, run 1, well a","induced reporter light, run 1, well b","control promoter light, run 1, well a","control promoter light, run 1, well b","uninduced reporter light, run 1, well a"
NimB5,DRSC01885,1.26e5,1.32e5,1.67e5,1.81e5,11425
tobi,DRSC14435,1.51e5,1.25e5,1.52e5,2.09e5,11630
CG33259,DRSC10854,2.37e5,1.87e5,2.42e5,2.62e5,10500
CRIF,DRSC11811,1.26e5,1.05e5,1.12e5,93075,6825
CG14369,DRSC14831,2.41e5,2.31e5,2.19e5,2.27e5,18055
CG14877,DRSC15001,1.62e5,1.82e5,1.60e5,1.42e5,12630
Ltn1,DRSC11056,1.34e5,1.43e5,1.01e5,1.19e5,10225
Ltn1,DRSC11058,1.89e5,1.15e5,1.33e5,96395,11945
myo,DRSC17174,1.65e5,2.01e5,2.23e5,2.12e5,12905
ric8b + ric8a,DRSC18104,1.73e5,1.22e5,1.71e5,1.96e5,8278
bbx + waw,DRSC20575,1.15e5,1.02e5,1.20e5,64710,9505
bbx + waw,DRSC20589,1.13e5,1.18e5,1.12e5,1.64e5,11725
CG5516,DRSC15826,2.15e5,2.63e5,2.48e5,1.99e5,15885
eEF5,DRSC04681,1.60e5 (active),1.40e5,95985,1.07e5,9800
ema,DRSC14536,2.46e5,2.57e5,2.29e5,2.29e5,17945
Egfr,DRSC03871,91710,88335,73480,88025,10270
Egfr,DRSC04613,1.80e5,2.27e5,1.83e5,1.69e5,14965
CG34057,DRSC08375,1.40e5,1.54e5,2.82e5,2.66e5,7715
daw,DRSC00479,1.94e5,2.19e5,2.13e5,2.33e5,17295
